Results reported in publication PMC6071530.
These are yes or no findings as the source states them, for the method shown.

Protein sequences, listed by entry. Tags and fused reporters are not part of them.
UniProt P26447: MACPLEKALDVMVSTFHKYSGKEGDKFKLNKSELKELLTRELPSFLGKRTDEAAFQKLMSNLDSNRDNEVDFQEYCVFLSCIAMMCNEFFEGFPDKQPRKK

Target: ErbB2-Fc (UniProt P04626)
Assay: SPR; BIAcore 2000; 2000 RU of ErbB/Fc chimera immobilized covalently on a CM4 chip; S100A4 or peptides as analyte; apparent affinities calculated from binding kinetics; both purified

- binding: no binding
Substance: Recombinant human S100A4 (from UniProt P26447 1-101)
